PubChem BioAssay AID1259254, NCATS – 2017
Aim: 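Genome-wide screen for genes that prevent DNA re-replication in cancer cells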 (primary screen). Cells: human HCT116 colorectal cancer cells. Reagent: single siRNA against human genes. Timing: 3 days. Detection: 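Nuclei stained with Hoechst and imaged; cell-cycle phase assigned by DNA content; G2 share scaled per plate, non-targeting siRNA 0%, GMNN siRNA 100%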. Scale: G2 robust z-score: higher = more G2 cells, more excess DNA replication. Rule for the call: 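An siRNA counts as active if its G2 robust z-score lies at least 5 MADs above the screen median; here such calls match roughly 38% of GMNN control or more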.
This is a random part of about 59,000 deposited reagents. About 1,550 of all reagents (2.6%) were called active. 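G2 share is only a proxy for re-replication; each gene was hit by three separate siRNAs, and active genes were retested.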 Reagents against one gene are numbered here. Further read-outs or replicates are left out here. Not given: the amount of reagent.

no.	gene	siRNA no.	G2 robust z-score	activity call
1	MS4A6A (membrane spanning 4-domains A6A)	1	-0.76	inactive
2	MS4A6A (membrane spanning 4-domains A6A)	2	-1.36	inactive
3	MS4A6A (membrane spanning 4-domains A6A)	3	1.83	inactive
4	ZNF213 (zinc finger protein 213)	1	0.306	inactive
5	ZNF213 (zinc finger protein 213)	2	-0.592	inactive
6	ZNF213 (zinc finger protein 213)	3	-0.819	inactive
7	CFAP126 (cilia and flagella associated protein 126)	1	-1	inactive
8	CFAP126 (cilia and flagella associated protein 126)	2	-0.000276	inactive
9	CFAP126 (cilia and flagella associated protein 126)	3	1.85	inactive
10	PRB3 (proline rich protein BstNI subfamily 3)	1	0.0973	inactive
11	PRB3 (proline rich protein BstNI subfamily 3)	2	-0.441	inactive
12	PRB3 (proline rich protein BstNI subfamily 3)	3	0.497	inactive
13	PCDHGB4 (protocadherin gamma subfamily B, 4)	1	1.01	inactive
14	PCDHGB4 (protocadherin gamma subfamily B, 4)	2	-0.855	inactive
15	PCDHGB4 (protocadherin gamma subfamily B, 4)	3	0.427	inactive
16	SOX8 (SRY-box transcription factor 8)	1	5.58	active
17	SOX8 (SRY-box transcription factor 8)	2	-0.246	inactive
18	SOX8 (SRY-box transcription factor 8)	3	-0.707	inactive
19	VTN (vitronectin)	1	-1.53	inactive
20	VTN (vitronectin)	2	2.34	inactive
21	VTN (vitronectin)	3	-0.871	inactive
22	RGPD5 (RANBP2 like and GRIP domain containing 5)	1	0.131	inactive
23	RGPD5 (RANBP2 like and GRIP domain containing 5)	2	1.03	inactive
24	RGPD5 (RANBP2 like and GRIP domain containing 5)	3	1.22	inactive
25	CBX3P2 (CBX3 pseudogene 2)	1	-0.0485	inactive
26	CBX3P2 (CBX3 pseudogene 2)	2	3.18	inactive
27	CBX3P2 (CBX3 pseudogene 2)	3	2.33	inactive
28	ROBO1 (roundabout guidance receptor 1)	1	2.39	inactive
29	ROBO1 (roundabout guidance receptor 1)	2	-0.293	inactive
30	ROBO1 (roundabout guidance receptor 1)	3	-0.97	inactive
31	BAZ1A (bromodomain adjacent to zinc finger domain 1A)	1	0.617	inactive
32	BAZ1A (bromodomain adjacent to zinc finger domain 1A)	2	-0.813	inactive
33	BAZ1A (bromodomain adjacent to zinc finger domain 1A)	3	-1.36	inactive
34	COBLP1 (COBL pseudogene 1)	1	1.12	inactive
35	COBLP1 (COBL pseudogene 1)	2	-0.902	inactive
36	COBLP1 (COBL pseudogene 1)	3	-0.758	inactive
37	WFDC1 (WAP four-disulfide core domain 1)	1	1.97	inactive
38	WFDC1 (WAP four-disulfide core domain 1)	2	0.102	inactive
39	WFDC1 (WAP four-disulfide core domain 1)	3	5.79	active
40	ZBTB7A (zinc finger and BTB domain containing 7A)	1	-1.07	inactive
41	ZBTB7A (zinc finger and BTB domain containing 7A)	2	-0.298	inactive
42	ZBTB7A (zinc finger and BTB domain containing 7A)	3	-0.245	inactive
43	CSPG5 (chondroitin sulfate proteoglycan 5)	1	0.0684	inactive
44	CSPG5 (chondroitin sulfate proteoglycan 5)	2	0.287	inactive
45	CSPG5 (chondroitin sulfate proteoglycan 5)	3	2.16	inactive
46	PGM5 (phosphoglucomutase 5)	1	-1.2	inactive
47	PGM5 (phosphoglucomutase 5)	2	-0.0299	inactive
48	PGM5 (phosphoglucomutase 5)	3	-0.667	inactive
49	GABRA2 (gamma-aminobutyric acid type A receptor subunit alpha2)	1	-0.223	inactive
50	GABRA2 (gamma-aminobutyric acid type A receptor subunit alpha2)	2	0.832	inactive
51	GABRA2 (gamma-aminobutyric acid type A receptor subunit alpha2)	3	0.484	inactive
52	ALG13 (ALG13 UDP-N-acetylglucosaminyltransferase subunit)	1	1.21	inactive
53	ALG13 (ALG13 UDP-N-acetylglucosaminyltransferase subunit)	2	0.506	inactive
54	ALG13 (ALG13 UDP-N-acetylglucosaminyltransferase subunit)	3	-0.102	inactive
55	ALG13 (ALG13 UDP-N-acetylglucosaminyltransferase subunit)	4	1.19	inactive
56	ALG13 (ALG13 UDP-N-acetylglucosaminyltransferase subunit)	5	0.293	inactive
57	ALG13 (ALG13 UDP-N-acetylglucosaminyltransferase subunit)	6	-0.426	inactive
58	ALG13 (ALG13 UDP-N-acetylglucosaminyltransferase subunit)	7	-0.707	inactive
59	ALG13 (ALG13 UDP-N-acetylglucosaminyltransferase subunit)	8	-0.804	inactive
60	ALG13 (ALG13 UDP-N-acetylglucosaminyltransferase subunit)	9	-0.517	inactive
61	ZNG1E (Zn regulated GTPase metalloprotein activator 1E)	1	-1.09	inactive
62	ZNG1E (Zn regulated GTPase metalloprotein activator 1E)	2	-0.137	inactive
63	ZNG1E (Zn regulated GTPase metalloprotein activator 1E)	3	-0.13	inactive
64	PLCXD1	1	3.42	inactive
65	PLCXD1	2	1.2	inactive
66	PLCXD1	3	-0.583	inactive
67	ATP7B (ATPase copper transporting beta)	1	0.00282	inactive
68	ATP7B (ATPase copper transporting beta)	2	-1.51	inactive
69	ATP7B (ATPase copper transporting beta)	3	-0.0905	inactive
70	AP2S1 (adaptor related protein complex 2 subunit sigma 1)	1	-0.772	inactive
71	AP2S1 (adaptor related protein complex 2 subunit sigma 1)	2	-0.638	inactive
72	AP2S1 (adaptor related protein complex 2 subunit sigma 1)	3	-0.337	inactive
73	CHN2 (chimerin 2)	1	0.873	inactive
74	CHN2 (chimerin 2)	2	2.11	inactive
75	CHN2 (chimerin 2)	3	-0.522	inactive
76	SYNDIG1L (synapse differentiation inducing 1 like)	1	-0.699	inactive
77	SYNDIG1L (synapse differentiation inducing 1 like)	2	2.65	inactive
78	SYNDIG1L (synapse differentiation inducing 1 like)	3	2.4	inactive
79	SYNDIG1L (synapse differentiation inducing 1 like)	4	-0.994	inactive
80	SYNDIG1L (synapse differentiation inducing 1 like)	5	-0.458	inactive
81	SYNDIG1L (synapse differentiation inducing 1 like)	6	0.485	inactive
82	USP50 (ubiquitin specific peptidase 50)	1	-0.54	inactive
83	USP50 (ubiquitin specific peptidase 50)	2	1.3	inactive
84	USP50 (ubiquitin specific peptidase 50)	3	0.192	inactive
85	EEF1AKMT1 (EEF1A lysine methyltransferase 1)	1	-0.17	inactive
86	EEF1AKMT1 (EEF1A lysine methyltransferase 1)	2	-0.1	inactive
87	EEF1AKMT1 (EEF1A lysine methyltransferase 1)	3	0.532	inactive
